From patent US5480887A, “Protease inhibitors” (Eli Lilly and Company, priority 1994, dated 1996) come the findings set out here.

The subject of one assay is HIV. In words: microbe, parasite or virus in culture. It counts as cell-based. The note with it: Human immunodeficiency virus 1, read-out: Antiviral Activity IC90. The protocol:
In addition, the compounds described in the present application may be tested using an antiviral cell culture assay as described in Weislow, O.S., J. of National Cancer Institute, 81(8), pages 577-586 (Apr. 19, 1989) herein incorporated by reference.
This assay compares the viability of HIV-infected cells in a cell culture medium relative to the viability of such cells in the presence of a test compound. The concentration of test compound necessary to inhibit 90% of the virus is then measured using the viability of the cells as an indicator of viral inhibition. This assay is carried out using cell lines that are sensitive to the lyric effects of HIV infection.
Specifically, this assay utilizes the metabolic reduction of a tetrazolium reagent, 2,3-bis[2-methoxy-4-nitro-5-sulfophenyl]-5-[(phenylamino)carbonyl]-2H-tetrazolium hydroxide (XTT). In the presence of a viable cell, the tetrazolium reagent, XTT, is reduced to provide XTT formazan which may be quantified using colorimetric determination (at 450 nm). The intensity of the chromogenic signal is directly proportional to the concentration of the XTT formazan, thus providing a measure of the quantity of viable cells.

The next assay has as its target T1, HIV-1 Protease (Human immunodeficiency virus type 1 group M subtype B, UniProt P04585).
T1 construct: HIV-1 Protease
In words: biochemical. The protocol: These compounds may be assayed using two assays: (1) an enzyme inhibition assay, and (2) an antiviral cell culture assay.
This assay is described in detail in published European Patent Application (EPA) 0 526 009, herein incorporated by reference. Using this assay, a number of the compounds, prepared above, were assayed for HIV protease inhibitory activity.
The assay is unable to test compounds at less than a concentration of 0.16 ng/mL.

In general, IC90 refers to the concentration at which the effect reaches the 90% level. As a reminder, the IC50 is the concentration needed to halve the response being measured. A high value points to weaker potency in that assay. `CC(=O)N[C@H](CS(=O)(=O)c1ccc(F)cc1)C(=O)N[C@@H](Cc1ccccc1)[C@H](O)CN1C[C@H]2CCS[C@H]2C[C@H]1C(=O)NC(C)(C)C` [Example 22, N-t-Butyl-octahydro-5[2R-hydroxy-3S-phenylmethyl-4-aza-5-oxo-6S-N(acetyl)amino-7-p-fluorophenylsulfonyl-heptyl]-(3aR,7aS)-thieno[3,2-c]pyridine-(6S)-carboxamide]: the IC90 in the assay on HIV was found to be 296 nM. It took 1.31 nM to reach half-maximal inhibition against HIV-1 Protease (IC50).
